Numbering of substitutions follows the chain as printed. Results are given in words; binding and its absence hold for the method and conditions named. Binding seen in cells or lysates may run through a third protein. Here binding means that the protein was enriched with, or labelled near, the bait; the list need not be complete. For part of these data: Tags and fused reporters may be left off the sequences shown.
What was measured:
BirA*-CAMK2D = BirA*-CAMK2D (UniProt Q13557); assay: proximity labelling; BioID with Western blot: HEK293T transfected with a BirA* fusion (with or without a co-expressed tagged prey), 50 µM biotin 24 h, lysis in 50 mM Tris, 150 mM NaCl, 1% Triton X-100, streptavidin agarose pull-down overnight at 4 °C; in Fig. 5G with or without 200 ng/ml nocodazole (16 h); in Fig. 5F with or without co-expressed flag-RNF8
[1] = molecular target: T1, BirA*-*RING (RNF8^C403S) (human) (UniProt O76064); assay: as above
T1 sequence: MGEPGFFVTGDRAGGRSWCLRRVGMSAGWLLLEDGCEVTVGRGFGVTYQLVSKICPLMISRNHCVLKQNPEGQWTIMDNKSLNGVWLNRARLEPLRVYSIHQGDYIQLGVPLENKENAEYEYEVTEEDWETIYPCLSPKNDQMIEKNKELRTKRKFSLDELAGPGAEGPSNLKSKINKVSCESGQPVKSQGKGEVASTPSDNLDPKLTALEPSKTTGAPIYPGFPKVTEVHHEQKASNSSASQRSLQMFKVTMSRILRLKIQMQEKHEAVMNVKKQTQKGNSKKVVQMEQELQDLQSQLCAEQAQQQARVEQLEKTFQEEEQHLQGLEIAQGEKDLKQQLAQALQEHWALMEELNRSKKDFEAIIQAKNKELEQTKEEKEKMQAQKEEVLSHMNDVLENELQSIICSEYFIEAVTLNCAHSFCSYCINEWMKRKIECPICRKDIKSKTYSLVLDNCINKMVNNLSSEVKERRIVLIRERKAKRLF

The chains behind the UniProt entries cited, without tags or fusion partners. Where a name states a change or a piece, a line headed by the entry shows the natural chain unless it says otherwise.
UniProt Q13557: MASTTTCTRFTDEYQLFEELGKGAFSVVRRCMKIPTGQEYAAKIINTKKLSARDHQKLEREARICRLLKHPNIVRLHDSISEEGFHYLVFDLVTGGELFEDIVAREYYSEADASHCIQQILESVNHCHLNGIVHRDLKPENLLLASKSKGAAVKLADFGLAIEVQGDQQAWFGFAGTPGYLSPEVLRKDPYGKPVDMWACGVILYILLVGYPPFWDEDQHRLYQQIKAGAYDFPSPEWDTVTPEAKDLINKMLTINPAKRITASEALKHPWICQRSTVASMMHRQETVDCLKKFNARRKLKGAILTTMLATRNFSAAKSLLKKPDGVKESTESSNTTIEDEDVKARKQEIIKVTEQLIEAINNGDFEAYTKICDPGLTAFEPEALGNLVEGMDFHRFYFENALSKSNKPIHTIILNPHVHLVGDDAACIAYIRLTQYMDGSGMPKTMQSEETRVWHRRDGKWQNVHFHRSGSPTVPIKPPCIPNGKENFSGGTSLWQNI
UniProt Q13257: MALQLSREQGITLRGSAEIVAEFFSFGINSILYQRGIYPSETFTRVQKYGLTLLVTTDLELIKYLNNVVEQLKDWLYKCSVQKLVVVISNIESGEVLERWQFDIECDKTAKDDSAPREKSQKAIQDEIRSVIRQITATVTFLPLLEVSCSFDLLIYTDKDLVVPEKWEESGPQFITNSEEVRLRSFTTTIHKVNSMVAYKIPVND

myc-BirA*-RNF8 (human) [2] = molecular target: T2, myc-BirA*-RNF8 (human) (UniProt O76064); assay: as above
T2 sequence: T1 sequence with S403C

myc-BirA*-RNF8 (human) [3] = molecular target: T2, myc-BirA*-RNF8 (human); assay: proximity labelling; BioID with mass spectrometry: HEK293T transfected with BirA*-GFP, -RNF8 or -*FHA, biotin, streptavidin agarose pull-down of lysates, on-bead digestion, TMT labelling, LC-MS/MS; RNF8 vs GFP and *FHA vs RNF8 compared

Substance	binding (BirA*-CAMK2D)	binding [1]	binding (myc-BirA*-RNF8 (human) [2])	binding (myc-BirA*-RNF8 (human) [3])
HA-MAD2 (from UniProt Q13257 1-205)	binds	–	–	–
HA-MAD2^ΔC (from UniProt Q13257)	–	binds	binds weakly	–
MAD2 (from UniProt Q13257 1-205)	–	–	binds	binds
HA-MAD2^L13A (from UniProt Q13257 1-205)	–	–	binds	–

From PMC10406836
